## Library screen at single concentrations

A: 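Phenotypic screen: M. tuberculosis growth, glucose 7H9 medium, 3 days; the read-out is not stated. Concentration: 500 µM. The record gives no direction; compounds that gave an IC50 in retests scored well above the rest, so higher reads as more growth inhibition. Of about 18,000 compounds tested this way, about 1,400 (7.9%) reached 50% or more in at least one test.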
B: 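Growth of Mycobacterium tuberculosis over 4 days (cholesterol / DPPC medium with tyloxapol); the read-out is not stated. Tested at 500 µM. The record gives no direction; compounds that gave an IC50 in retests scored well above the rest, so higher reads as more growth inhibition. Of about 18,000 compounds tested this way, about 900 (5%) reached 50% or more in at least one test.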

Each number is a percent effect as filed.
How 0% and 100% were set is not recorded. Most values in the screen are low, and negative values occur.
Compounds were drawn at random from those tested, without regard to their results.

| compound | A | B |
|---|---|---|
| `CCNCc1cccc(OCC(=O)NCC)c1` | -0.2513% | 9.926% |
| `CC(C)CC(NC(=O)C1CC1)C(=O)N(C)C` (centres unmarked) | 7.753% | 13.13% |
| `CCN(CC)S(=O)(=O)c1ccc(CCN)s1` | 32.19% | 16.88% |
| `N#Cc1ccc(N2CCCC2C(=O)NC2CC2)cn1` (centres unmarked) | -2.972% | -11.68% |
| `Cc1ccccc1C1(O)CCN(Cc2ncc[nH]2)C1` (centres unmarked) | 47.63% | 2.607% |
| `Cc1ccsc1CN(C)C(=O)NCCS(C)(=O)=O` | 18.31% | 13.01% |
| `O=C(Cc1ccccc1)NCC(=O)Nc1nccs1` | 30.5% | 12.44% |
| `CC1(c2ccncc2)NC(=O)c2ccccc2N1` (centres unmarked) | 2.046% | -2.592% |
| `Cc1ccc(S(=O)(=O)NC(C)(C)CN)c2cccnc12` | 22.82% | 26.22% |
| `Cc1ccc(CNC(=O)c2cnn(C)c2)cc1F` | 60.28% | 28.84% |
| `CCc1noc(CC2CCNCC2)n1` | 2.115% | 8.184% |
| `Cc1cc(-n2cccn2)ccc1NC(=O)CN(C)C` | 32.21% | 26.11% |
| `CC(C)[C@H](N)C(=O)N1CCN(c2ccncc2Cl)CC1` | 7.387% | 8.022% |
| `Cc1noc(NCc2cc3ccccc3nc2O)n1` | -5.32% | -12.99% |
| `CCc1cc(C(=O)NCC(C)C)no1` | 6.848% | -4.344% |
| `CCNC(=O)NC(C)c1ccc(-n2cncn2)cc1` (centres unmarked) | -2.035% | -3.354% |
| `Cc1nnc(NC(=O)NC2CCNCC2)s1` | 16.28% | 0.8626% |
| `OC1CCN(Cc2nnnn2-c2ccccc2Br)CC1` | 38.32% | 33.36% |
| `CS(=O)(=O)NCCNC(=O)N1CCc2ccccc2C1` | 12.94% | 6.821% |
| `CN(C(=O)CCNC(=O)C1CCCO1)c1ccccc1` (centres unmarked) | 11.22% | 1.804% |
| `CCn1cc(NC(=O)NC(C)C)cn1` | -2.413% | -9.858% |
| `CCCn1ccnc1CCCNC` | 0.9005% | 7.761% |
| `CC(C)Cc1nnc(CN)o1` | 5.445% | -0.02899% |
| `N[C@@H]1C[C@@H]1N1CCOCC1` | 20.92% | -13.99% |
| `CS(=O)(=O)N1CCC(CN)C1` (centres unmarked) | 3.437% | -8.437% |
| `Cc1cc(CN2CCC(C(=O)NCC(C)O)CC2)on1` (centres unmarked) | 6.612% | 9.35% |
| `COC(C)(C)C(=O)NCc1ccnc(NC2CC2)c1` | 7.01% | -3.964% |
| `Cc1cnc(C)c(N2CCN(Cc3ncc[nH]3)CC2)n1` | 2.169% | 2.927% |
| `COCC(=O)NCCc1cc(Cl)c2c(c1)OCCO2` | 57.7% | 66.45% |
| `CC(N)c1nncn1C` (centres unmarked) | 41.5% | -2.248% |
| `Cc1ccccc1OCCCNC(=O)NC[C@@H](C)O` | 52.49% | 24.36% |
| `CNCC(=O)N1CCCc2ccccc21` | -5.84% | 1.179% |
| `NS(=O)(=O)c1ccc(NC(=O)Cn2ccnc2)cc1` | -11.14% | 71.74% |
| `O=C(CSCc1ccc(Cl)s1)N1CCOCC1` | 58.99% | 46.74% |
| `O=c1ccoc2ccc(F)cc12` | -9.777% | -12.39% |
| `Cc1ccsc1C(=O)Nc1ccc2c(c1)NC(=O)CO2` | 44.1% | 28.59% |
| `CCN1CC2(CCN(c3ccnc(C)c3)CC2)CC1=O` | -4.488% | -9.633% |
| `CNC(=O)c1cccc(CN(CC(C)(C)O)C(C)C)c1` | 5.341% | 5.546% |
| `C[C@H]1CNCCN1C(=O)c1cscn1` | 1.83% | -4.128% |
| `CCOC(C)c1nccn1Cc1ccc(C(N)=O)cc1` (centres unmarked) | 3.451% | -8.671% |
| `CC(CNC(=O)c1cc(O)cs1)CN1CCOCC1` (centres unmarked) | -5.445% | -14.63% |
| `NCc1ccc(N2CCOCC2)cc1` | -6.967% | 2.482% |
| `COCCN1CCC(CN(C)C2CCNCC2)C1` (centres unmarked) | 8.922% | 1.065% |
| `O=C1CSc2ccc(C(=O)Nc3nccs3)cc2N1` | 6.983% | 1.71% |
| `O=C(Cc1ccc(O)c(Cl)c1)NCC1(O)CCNC1` (centres unmarked) | 21.52% | 4.562% |
| `CS(=O)(=O)NC1CCN(CCn2cncn2)CC1` | 3.634% | 1.434% |
| `CCO[C@@H]1COCC[C@H]1NC(=O)CCc1csc(N)n1` | 6.69% | 6.656% |

Once more, the final 3:

compound	A	B
O=C(Cc1ccc(O)c(Cl)c1)NCC1(O)CCNC1 (centres unmarked)	21.52%	4.562%
CS(=O)(=O)NC1CCN(CCn2cncn2)CC1	3.634%	1.434%
CCO[C@@H]1COCC[C@H]1NC(=O)CCc1csc(N)n1	6.69%	6.656%

Data taken from ChEMBL document CHEMBL3988442, “University of Dundee, Small-Polar-MMV Screening Library” (2021).